According to a protein production outcome set (Wang et al. 2014):

experiment: label from the status in PepcDB records

Sequence | protein production
MAANATTNPSQLLPLELVDKCIGSRIHIVMKSDKEIVGTLLGFDDFVNMVLEDVTEFEITPEGRRITKLDQILLNGNNITMLVPGGEGPEV | failed
MAIINRSKLTQTTMIKQILKRCSSLGKKQSSEYNDTHEHDGDSLPLDVPKGHFVVYVGGNRVRYVLPISFLTRPEFQLLLQQAEEEFGFDHNMGLTIPCEENETNSRDASKSDL | failed
MESPPLYEISSSSSSEKPRHHFQSLDLFPNLNQNSCINNTLIEPLPLIDRINLNSNLDLNPNPLYAEEGEQEEEEEEEEDREVDVDLHIGLPGFGKPSNDAKQLKKRNGKEIATYDAGKGIENELSGKAYWIPAPEQILIGFTHFSCHVCFKTFNRYNNLQMHMWGHGSQYRKGPESLKGTQPRAMLGIPCYCCVEGCRNHIDHPRSKPLKDFRTLQTHYKRKHGHKPFSCRLCVGSSFYLSIVFEIGVWDINNLTLVDNDAAKKQLEFLMGGFKLLCQSEVQFLEMLTSMEETLKRMVCAVERIESRSISDDGRQLDLRIFTKGNPKSGLR | failed
MGRELVDKHMDKKANSLTASSTGSSDDNKVPSPSTNEAAEVKECTEQNLVADDARLRQQGITETPGSHKSSVKPRVTAKTTVPKPFSLSAEKPRRAAVDNNSLGNGASHNSSSASRVSQLNSPLPTRRIPDHKMHHDEEDSFSVASSSATSIRSFKPKITIGVAPTFSSTSRLERRREFYQKLEEKQKALEAEKRENEKRLKEEQEAVTKQLRKNMAYKANPVPSFYQEGPPPKQPLKKFPLTRPKSPNLNRRKSCSDTVNASYQEVKGKHCARHRHSVGGCKDEVKTNSVPRTPNSSSKDQMRKSKKGTPKSEEVHEMFNSGHDGETGENGVGVVEE | failed
MKIIVGIGGVTNGGKTTLTNKLINSLPNCCVVHQDDFFKPQDKIEVEDGFKQYDVITALDMEAMMSTIDGWQKDPAKFERSHGINNELDSEAPQDAEKREILHILIVEGFLLYTYKPLIDLFTKCYFLSVPYDECKRRRSSRNYTVPDPPGLFDGHVWPMYIKHKNIMEELTVNVEQLDGTNTREELFNRVYGDILDLINSKE | failed
MKSRMFMGRQKRQELLQKAEWLDTLSLHCGIGLWDAILHEGDAMHPKARWTWSSEFRRLCGYSSEAEFPNVVQSWSDRLHPDDVAPTFAAFTQTCQTGIGYDVKYRLKVKDGSYRWFRATGGVVLDENRKPRRACGSLVDIDELVKAENQKRDSIHQLANDFEGAIGKIVRTVSSASADLESSARQLATTADTSQHLAGNVAAASEEATSNVQSVASATDQLSSSIREISQQVQESARIAGEAVGQARNTTDRVSELSKAATRIGDVVELINTIAGQTNLLALNATIEAARAGEAGRGFSVVAAEVKALAEQTAKATGEIGQQISRIQSATQESVGAISEISGTIEKLSEISAHIASAVEEQGAATQEISRNIQQTAQGTERVSATILDVRRGAVETGTSSTQLLSSAQSLSQESGRLEDEVSRFLRTVRAS | failed
MLLMASYKKDEQEENHKWYLDSGASNHMCGRKSMFAELDESVRGNVALGDESKMEVKGKGNILIRLKNGDHQFISNGYYIPSMKTNILSLGQLLEKGYDIRLKDNNLSIRDQESNLITKVPMSKNRMFVLNIRNDIAQCLKMCYKEESWLWHLRFGHLNFGGLELLSRKEMVRGLPCINHPKQGCEVVFKFKAK | failed
MRFAIEQLGLLFGCQRVHVIYHDPAKDCLHMAEEWCAVGIAPRLSTFQGVPVATYPWLWANLQDSEGVLVRDVEQMPPEAEMDKVSLQFDLVKSILVVPMVKDAQVLGYISMVHLHDNYGWNPEELNLAKLVGQFLAIAQARHQAETTLTQAKEAADAANRAKTEFLASISHELRTPLNAIIGFSQLLHRDP | failed
MSGGLAPSKSTVYVSNLPFSLTNNDLYRIFSKYGKVVKVTIMKDKDTRKSKGVAFILFLDKDSAQNCTRAINNKQLFGRVIKASIAI | not failed
MSSGADGGGGAAVAARSDKGSPGEDGFVPSALGTREHWDAVYERELQTFREYGDTGEIWFGEESMNRLIRWMQKHKIPLDASVLDIGTGNGVFLVELAKFGFSNITGIDYSPSAIQLSGSIIEKEGLSNIKLKVEDFLNLSTQLSGFHICIDKGTFDAISLNPDNAIEKRKQYVKSLSRVLKVKGFFLITSCNWTKEELLNEFSEGWSTVAGFWLTAALTSWAQAIFSTSASRVGGTTGTHHHAWIIFVFLAETRFCHVVQAGLELLGSSDSPTWPPKVLGLYHARPSLAF | failed
MSTLTLPSDLRLPVTVFSGFLGAGKTTLLNRLLNNRDGLRVAVIVNDMSEVNIDAQLVRDGGAALSRTDETLVEFSNGCICCTLRDDLSKEVKRLALEQRYDYLLIESTGIGEPMPVAATFAVRDADGFCLSDVARLDTMVTVVDGSQFTALFSSMNTLADLGQQADSDDTRSLADLLGQQIEFADTIVISKCDLIDATQLARVRAVVRGLNRDAQIIEAHLGEVPLPQLVGTGRFDFTRAQLAPGWMRELRGEHTPETEEYGITSFVYRARRPFHPLRFNHLLAHGLSGVIRSKGFFWLASRMDWVGELSSVGSATRTQAAGFWYAARHRVDVHEENMPPQIGIAPLPYTELGWQRQQNDCWTAPLPAPHEVSDPGEYVAMQRLWHPQWGDRRQELAVIGLDMDKDVARNELDACLLSNEELRMGPMYWSALPDPFPQWRRLEHHHHHH | failed
MTDYYEVLGVDRSASDDEIKKAYRKMSRKYHPDIAGPEFEDKFKEVNNAYDVLSDPKKRQMYDAGVDPNDPNAGGMHGGGFGGGFGDMGDIFSMFTGGGFGGTGGGPTPRTQPGRDALVSATIDLKTAVFGDTTHVKVNTFGLCQECGGTGCQNGTQPTQCPDCHGQGYAQRVVRTMLGQMMTTAPCERCEGHGTVIEKPCPSCLGHGRVRVTRNVGVAVPAGVANNTRLRLANQGEVGENGGVAGDLYVDIRIKPDDMFTRDDDDLHCWIKVPMSWAVLGHEVEIDTFDGRQTLDIPAGSQPDDTVTLKNLGVTHLDDKNERGDLVAHVVVEIPKKLSDDERELIERFGEMHDTDAQHVAVKSRPSSGAKKGFFSKLKDALR | failed
NLAAKVELVDIQREGAXALHGGNDAPQRLRHCAVAEVRPALRRAVAGERFRLEFFVPPKASRPKISIPLSAIIEVRTTMPLEMPEKDNTFVLKVENGAEYILETIDSLQKHSWVADIQGCVD | not failed
TDVAARGIDINDLTHVVNYDIPQNPESYVHRIGRTGRAGKQGYAVTFVEPSEFRKFKYIQKIAKTEIRKEEVPDVKDIIGAKKRKIVSGIKEVLESGKYNDCENMAADLLEDADPQEVLSAVLKYALKDELSESNYK | failed
YGYYSIGFARKDSGITSLADMKGKVFGFGDPNSTSGFLIPSIEIPQETGATMTSGDYFGEVKFTGGHEQTIVAVGNGEVDGGVTWADGLGAWEDGFNSGALRKAVDAGLVDMNDLVQIWQSKPIPEGPFVVRKALPA | failed
